According to article doi:10.1101/2024.05.01.592016:
These are yes or no findings as the source states them, for the method shown. In cells and extracts the contact can be indirect. Some binding calls cover weakened binding; strength is not graded here.

Amino acid sequences for entries named in this document (tags omitted).
UniProt P28347: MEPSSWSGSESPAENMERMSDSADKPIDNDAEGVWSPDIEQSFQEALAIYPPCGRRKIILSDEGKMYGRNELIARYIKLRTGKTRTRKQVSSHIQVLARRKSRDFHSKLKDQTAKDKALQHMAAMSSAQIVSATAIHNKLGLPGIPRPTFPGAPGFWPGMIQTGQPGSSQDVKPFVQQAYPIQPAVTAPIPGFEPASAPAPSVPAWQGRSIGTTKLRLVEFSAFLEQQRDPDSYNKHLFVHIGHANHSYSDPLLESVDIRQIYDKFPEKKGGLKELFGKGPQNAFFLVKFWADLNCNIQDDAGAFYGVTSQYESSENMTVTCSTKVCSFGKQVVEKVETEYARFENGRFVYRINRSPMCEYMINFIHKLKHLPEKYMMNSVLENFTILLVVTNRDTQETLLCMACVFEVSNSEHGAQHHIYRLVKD
UniProt Q9GZV5: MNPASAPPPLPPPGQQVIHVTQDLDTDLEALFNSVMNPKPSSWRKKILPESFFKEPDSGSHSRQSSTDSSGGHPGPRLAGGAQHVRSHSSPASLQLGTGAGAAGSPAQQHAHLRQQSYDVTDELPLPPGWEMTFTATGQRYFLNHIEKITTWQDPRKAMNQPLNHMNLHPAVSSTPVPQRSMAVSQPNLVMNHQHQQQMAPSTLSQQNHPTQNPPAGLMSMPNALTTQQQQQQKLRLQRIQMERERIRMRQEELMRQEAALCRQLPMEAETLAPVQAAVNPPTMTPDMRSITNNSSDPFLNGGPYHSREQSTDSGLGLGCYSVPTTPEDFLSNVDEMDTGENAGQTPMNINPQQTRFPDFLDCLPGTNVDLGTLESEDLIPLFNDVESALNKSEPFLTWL

Molecular target: TEAD1-Flag (UniProt P28347)
Test: co-IP; TEAD1-Flag or TEAD1-NCOA2-Flag expressed in HEK293T cells, immunoprecipitated with an anti-Flag antibody; endogenous YAP/TAZ detected by anti-YAP/TAZ antibodies

## endogenous TAZ (from UniProt Q9GZV5 1-400)
  binding: binds
